The source of these data is paper doi:10.1101/2022.08.14.503906.

These are yes or no findings as the source states them, for the method shown. Some binding calls cover weakened binding; strength is not graded here. Where a sequence is shown, tags or fusion partners need not be part of it.

Assay [1] concerns the target T1, prenylated Vps21 (yeast) (UniProt P36017).
T1 sequence (chain, prenylated (geranylgeranylpyrophosphate, Bet2/Bet4)): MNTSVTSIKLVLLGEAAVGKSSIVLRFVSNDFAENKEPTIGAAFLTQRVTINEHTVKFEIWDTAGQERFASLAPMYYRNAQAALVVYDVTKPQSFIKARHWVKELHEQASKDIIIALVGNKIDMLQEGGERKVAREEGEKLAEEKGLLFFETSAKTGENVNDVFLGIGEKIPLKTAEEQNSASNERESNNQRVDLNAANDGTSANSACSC
Briefly: co-sedimentation.

Assay [2] concerns the target T2, prenylated Ypt10 (yeast) (UniProt P38146).
T2 sequence (chain, prenylated (geranylgeranylpyrophosphate, Bet2/Bet4)): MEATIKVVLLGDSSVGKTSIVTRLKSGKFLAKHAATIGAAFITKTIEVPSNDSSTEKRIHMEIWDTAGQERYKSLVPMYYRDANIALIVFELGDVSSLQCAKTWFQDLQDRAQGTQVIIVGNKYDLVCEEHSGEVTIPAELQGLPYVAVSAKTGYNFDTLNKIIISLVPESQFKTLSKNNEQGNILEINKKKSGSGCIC
The experiment in a line: co-sedimentation.

B1: Mon1-Ccz1 complex from Saccharomyces cerevisiae (complex, UniProt P53129;P38273)
chain 1: MNLNESYLDAEIPKGQLKHSKSGNFEGIPIVATTSEPTTSVNLDETFFKKAPIAMPICDDHSVSKSTSVNSLNTTSLASRRSPLQTKKLQAKNNLLSADLAKSNDDTTRALNSPKKDFGPYLDSENDIRSRLAESIYSMETSIRGSELQRRPYVSNEIPNVFKFSKFNSNCKLNESQTLCDKNFFIFTSAGKPIYCMHGKDEQIMSYTGLVNTVISYFQVNGPSELKTISTLTSGKRLTFLDKSPILLMAQSERGESSNELLNQLDFLYSYILSSLSERQLLRLFSKRENFDLRNYLESTDFENLDEICSLICNRMFPDLLLNSLQCLPFNHSSRLKLQNVVLQQLEKRQDIPRGTLLYGLIIAPQNKLCCVLRPRGHTLHTTDLHLLFCLISHQFQNLDETQELWVPICFPKFNSSGFLYCYIKFLPNDTHSNEKSALVLISAQKDAFFSLKSFSDELIIKLEEEKLLKKINTSKGFKLSDIPAPMVHHFIYKSKQNVQYVMPHFEVNSNIALDSSQGLEYELKLKTYYQQLHGTVVRDNGNLLSRSMLNFVRWSSKDNEDLAMDETQMDFSELDEYIIGNSSFKQESVNMVGMAWVTPTFELYLIGNNGIVDKRVLFKSARKVANWCQKHESRLFISDGAVF
chain 2: MRLHYITVFDPSRSTNENDTFKQLLLFHYFGTTDSIPSLNEKLSIIGVIQGIWSLTSSCVNKDGEDLEKIIELNNDIIFCIKVESRFFISLAISNISDDQSAIPLQYLSAYLWLSYRFFKLLNGSFSGFNKDFRKLTDLLNEFVIPFWNDIYLNLETVTNRSFTVMWPGFYKRANFQHSSYNPGEKNNVEESWDAIILQNILLDKKSYLGLKDILVYHLPKRTKAANRESMGTKTYGLVRNFTSDLNTLPDISNWLYHLHCTYGEISSHILTGNVHFKEELQVEEEQERSRDTNGRDEEESQEQQRREHQETTQNNTSELSLSERVIHNVTLPISFAYDAIHEVSTTTGVSGSLSMIMDYVPKPHWPFISSSNKSADKNNYSNSNDNANSNAPLMAQSEAVGGTIGNSRFGFLISPLNSDLLPSSYQALKLNLNFENSKDKEDFYNCLFWYFDDFLIVIVCDPDFNKICERDYLKDLSFQLCQSMECLNNEILNSQNCDNVESFAYVIRDNVTKEIDSSVPFGSPKFTSDESISTLQLAINGIDQFINDNSNSLSLANWNPITIMGGSNAISKKNTTEGFGNGVNDKTQKFKRKYLNFLNLMSAEKLWDLQVDVLQFLTSLQNSKRDPDYFQEERLLKLNNGVLCYIKENNSNLIIIIKNWFQNNGTSKAAKQRNRFSSDSSKGSSLFQSLGRDVTDWWESREI
As to B1, the binding entry in assay [1] and in assay [2] was “binds weakly” throughout.
